Laboratory results taken from patent US20060083691A1, “Intranasal opioid compositions, delivery devices and methods of using same” (priority 2000, published 2006).

Columns and labels:
clinical = details: male, human, plasma, 2 mg
[1] = 2 mg IN
[2] = 2 mg IN; remark: listed apart in the source

Work on CN1CC[C@]23c4c5ccc(O)c4O[C@H]2C(=O)CC[C@H]3[C@H]1C5.Cl [hydromorphone HCl] yielded a bioavailability (clinical; intramuscular) of ~30%, an AUC(0-t) (clinical; intramuscular, AUC(0-t) range, 2 mg i.m.) of 10.6 to 15.3 ng·h/mL and an AUC(0-t) (clinical; intramuscular, AUC(0-t), 2 mg i.m.) of 13 ng·h/mL. It also gave an AUC(0-inf) (clinical; intramuscular, AUC(0-∞) range, 2 mg i.m.) of 11.2 to 16.7 ng·h/mL, an AUC(0-inf) (clinical; intramuscular, AUC(0-∞), 2 mg i.m.) of 13.5 ng·h/mL and a Cmax (clinical; intramuscular, Cmax range, 2 mg i.m.) of 6.75 to 18.1 ng/mL. For the same compound, the Cmax (clinical; intramuscular, Cmax, 2 mg i.m.) was 10.8 ng/mL, the Tmax (clinical; intramuscular, Tmax range, 2 mg i.m.) was 4.98 to 20 min and the AUC(0-t) (clinical; iv, AUC(0-t) range, 2 mg i.v.) was 8.55 to 11.5 ng·h/mL. It also gave an AUC(0-t) (clinical; iv, AUC(0-t), 2 mg i.v.) of 9.9 ng·h/mL, an AUC(0-inf) (clinical; iv, AUC(0-∞) range, 2 mg i.v.) of 8.79 to 12.9 ng·h/mL and an AUC(0-inf) (clinical; iv, AUC(0-∞), 2 mg i.v.) of 10.4 ng·h/mL. It also gave a Cmax (clinical; iv, Cmax range, 2 mg i.v.) of 6.95 to 28.9 ng/mL, a Cmax (clinical; iv, Cmax, 2 mg i.v.) of 15.5 ng/mL and a Tmax (clinical; iv, Tmax range, 2 mg i.v.) of 4.98 to 10 min. It also gave a Tmax (clinical; iv, Tmax, 2 mg i.v. (Dilaudid)) of 5.64 min, an AUC(0-t) (clinical; other: intranasal, AUC(0-t) range, 2 mg i.n.) of 4.25 to 8.73 ng·h/mL and an AUC(0-t) (clinical; other: intranasal, AUC(0-t), 2 mg i.n.) of 6.19 ng·h/mL. It also gave an AUC(0-inf) (clinical; other: intranasal, AUC(0-∞) range, 2 mg i.n.) of 4.36 to 9.1 ng·h/mL, an AUC(0-inf) (clinical; other: intranasal, AUC(0-∞), 2 mg i.n.) of 6.68 ng·h/mL and a Cmax (clinical; other: intranasal, Cmax range, 2 mg i.n.) of 2.76 to 4.42 ng/mL. For the same compound, the Cmax (clinical; other: intranasal, Cmax, 2 mg i.n.) was 3.44 ng/mL, the Tmax (clinical; other: intranasal, Tmax range, 2 mg i.n.) was 15 to 20 min and the nasal irritation [1] was “not observed”. For the same compound, the “absorption by the nasal route” value [2] was “well absorbed”.
